# Results as given in the supplement of paper PMC3334620.
# The full ranking holds about 33,000 sequences; the median of “E-score (-0.5 to 0.5)” is about -0.015, and the highest 2% start at about 0.3. The list shows a part of the results.
# Biological target: T1, Abf1 (UniProt P14164)
# T1 sequence: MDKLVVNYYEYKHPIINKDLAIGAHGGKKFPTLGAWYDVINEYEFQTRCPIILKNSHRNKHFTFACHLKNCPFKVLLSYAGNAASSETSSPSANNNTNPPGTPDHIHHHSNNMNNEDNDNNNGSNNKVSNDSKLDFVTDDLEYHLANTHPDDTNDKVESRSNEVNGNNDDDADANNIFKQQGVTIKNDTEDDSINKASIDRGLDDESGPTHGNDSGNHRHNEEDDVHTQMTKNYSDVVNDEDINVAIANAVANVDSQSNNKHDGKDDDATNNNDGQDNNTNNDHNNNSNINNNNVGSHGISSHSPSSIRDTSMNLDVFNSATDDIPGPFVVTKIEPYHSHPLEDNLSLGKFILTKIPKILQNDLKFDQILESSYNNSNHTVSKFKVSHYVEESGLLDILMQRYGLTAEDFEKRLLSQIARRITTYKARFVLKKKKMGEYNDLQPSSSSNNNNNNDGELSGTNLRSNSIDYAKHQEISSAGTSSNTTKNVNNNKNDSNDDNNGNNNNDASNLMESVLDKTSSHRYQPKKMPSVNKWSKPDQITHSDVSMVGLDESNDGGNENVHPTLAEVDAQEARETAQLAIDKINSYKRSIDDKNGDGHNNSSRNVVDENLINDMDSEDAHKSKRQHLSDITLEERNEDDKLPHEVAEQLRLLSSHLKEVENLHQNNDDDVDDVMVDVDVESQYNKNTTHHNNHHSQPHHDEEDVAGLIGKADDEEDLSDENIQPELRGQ
# Test: PBM E-score (8-mer binding enrichment) (E-score (-0.5 to 0.5)); higher = stronger / more preferred TF binding
# Conditions: protein concentration: 200 nM; construct: GST-full length
# In short: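 Using PURExpress in vitro transcription/translation, GST-tagged yeast transcription factors were made in full-length or DNA-binding-domain form. These were applied at about 100-200 nM to double-stranded universal all-10-mer Agilent arrays, and bound protein was detected with fluorescent anti-GST. Scans were normalised with masliner before the Universal PBM Analysis Suite assigned E-scores to ungapped eight-base words pooled with their reverse complements.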
row,Sequence,PBM E-score
1,ATCTGTCC,0.00463
2,CGGCTTAC,0.0369
3,AAGGAAAT,-0.0972
4,CGAGAGTC,-0.0578
5,AGTTGTAC,0.0977
6,AAGAACAG,0.0569
7,CGCAGCAG,-0.0221
8,GTGCCGAA,0.177
9,AGGCAGGA,0.0503
10,GACAGCAC,-0.0499
11,GACAGAAA,0.0767
12,AGCGGGTC,-0.0485
13,CCATGGAG,-0.208
14,CAAAGAAG,-0.0247
15,AAGAGAAC,0.0218
16,ATATGGGA,-0.173
17,CCTAGCCA,-0.0706
18,AACTCGCA,0.00732
19,GCACATTA,0.098
20,AGGAGGGG,-0.338
21,AAATTGAA,-0.0312
22,CTCACGAA,0.155

row,Sequence,PBM E-score
1,TGGTACAA,-0.0456
2,ACTAATCC,0.0179
3,ATTGGATC,0.124
4,CGGGAGGC,-0.326
5,CTGAGTTA,-0.0779
6,AACCGCGG,-0.163
7,GCCTGCCC,-0.332
8,TATTATGA,0.0866
9,GAGGGCCC,-0.223
10,AAGCGCCT,-0.201
11,GCATTGGC,-0.278
12,TAGGCATA,-0.151
13,CGAATTTA,0.146
14,ACCCCTGC,-0.307
15,GCAATGTA,0.0375
16,CACTTTGA,0.025
17,AGGGTGGG,-0.0843
18,ACGCGTGC,-0.0153
19,ACCAAAGC,0.131
20,AGCCAACA,-0.0935
21,AGAGCGAT,0.0783
22,ATCTCAGG,-0.184

row,Sequence,PBM E-score
1,AGCCGGCA,-0.132
2,ATGATTTG,0.193
3,CATGTTAG,-0.038
4,CCTACAAC,0.0213
5,GCACGTCA,0.0421
6,ATTTGTAG,-0.0294
7,GCCACACC,-0.174
8,ATCACGTA,0.218
9,AACGGCTG,0.0109
10,AAATTGGC,-0.0692
11,AAGCCACG,0.124
12,AGCGCGAG,-0.21
13,CCATACAC,0.017
14,TAATCCGA,-0.0108
15,CTTAAAAG,-0.0764
16,CGAGATAG,-0.0382
17,ACAAGATG,0.0794
18,ATTCGCAG,0.0177
19,ACAAGGAG,-0.205
20,AAGTTAGA,0.0437
21,ACTATCTG,-0.119
22,AAGTGCAT,0.0354

row,Sequence,PBM E-score
1,CCCTCCAA,-0.213
2,ACCAGAAA,0.0237
3,AGGCTCAT,-0.0285
4,ACCTGTAA,0.0555
5,CCCAGTAA,0.00346
6,TCGAAGAA,-0.154
7,ACAGAAAT,0.00533
8,ACATCGAG,-0.0781
9,TTGTAAAA,-0.064
10,GCGTTAAC,0.0377
11,CTTTATGC,0.00634
12,CGGTAACA,0.103
13,CCTAGATA,-0.0255
14,AATAGTCG,0.0257
15,GCGAGCCC,-0.216
16,GCCCGTGA,-0.0396
17,CGTGACCA,0.0961
18,GCCTAGCC,-0.218
19,AAGAGGCG,-0.117
20,AGAGCCAC,-0.236
